Experimental data: PMC7179242
These are yes or no findings as the source states them, for the method shown. Some results given as binding are weak or reduced against the parent protein; the word gives no strength.

Amino acid sequences for entries named in this document (tags omitted).
UniProt P40160: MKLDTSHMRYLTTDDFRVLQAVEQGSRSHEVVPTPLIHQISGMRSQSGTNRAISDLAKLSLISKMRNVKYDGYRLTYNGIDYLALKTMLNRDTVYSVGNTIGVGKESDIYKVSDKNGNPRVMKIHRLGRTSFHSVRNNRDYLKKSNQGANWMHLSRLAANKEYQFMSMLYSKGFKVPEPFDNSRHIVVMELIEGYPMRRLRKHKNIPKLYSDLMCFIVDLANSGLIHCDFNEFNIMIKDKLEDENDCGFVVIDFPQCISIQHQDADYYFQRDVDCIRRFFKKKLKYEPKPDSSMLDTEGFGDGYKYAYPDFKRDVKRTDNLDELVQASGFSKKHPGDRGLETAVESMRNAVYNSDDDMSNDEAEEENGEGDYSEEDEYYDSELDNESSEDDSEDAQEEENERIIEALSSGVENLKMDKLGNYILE

T1: Tsr1-FPZ (S. cerevisiae) (UniProt Q07381)
T1 sequence (chain, phosphorylated on T354 or S358 (100% of the peptide)): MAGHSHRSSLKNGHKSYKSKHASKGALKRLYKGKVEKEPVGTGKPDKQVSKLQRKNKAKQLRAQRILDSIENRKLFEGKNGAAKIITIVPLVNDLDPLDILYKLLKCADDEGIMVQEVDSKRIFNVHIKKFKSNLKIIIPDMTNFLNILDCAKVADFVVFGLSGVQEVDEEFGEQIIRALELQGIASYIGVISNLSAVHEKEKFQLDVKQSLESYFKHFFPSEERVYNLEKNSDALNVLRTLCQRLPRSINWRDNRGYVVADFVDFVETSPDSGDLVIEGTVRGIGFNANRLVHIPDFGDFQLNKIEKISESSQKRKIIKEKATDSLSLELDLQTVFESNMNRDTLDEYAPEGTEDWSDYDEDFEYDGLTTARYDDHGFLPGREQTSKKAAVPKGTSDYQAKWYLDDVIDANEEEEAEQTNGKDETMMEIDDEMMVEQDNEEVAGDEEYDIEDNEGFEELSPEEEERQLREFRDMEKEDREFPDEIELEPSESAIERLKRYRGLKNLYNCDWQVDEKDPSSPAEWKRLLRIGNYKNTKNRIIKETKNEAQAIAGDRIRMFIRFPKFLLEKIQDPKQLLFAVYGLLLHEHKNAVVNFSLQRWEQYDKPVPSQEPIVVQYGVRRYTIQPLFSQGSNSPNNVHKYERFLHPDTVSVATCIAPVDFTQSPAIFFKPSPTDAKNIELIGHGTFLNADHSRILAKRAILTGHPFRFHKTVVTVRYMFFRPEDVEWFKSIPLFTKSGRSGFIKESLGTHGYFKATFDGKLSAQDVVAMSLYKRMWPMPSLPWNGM

T2: Enp1 (S. cerevisiae (endogenous in BY4742)) (UniProt P38333)
T2 sequence: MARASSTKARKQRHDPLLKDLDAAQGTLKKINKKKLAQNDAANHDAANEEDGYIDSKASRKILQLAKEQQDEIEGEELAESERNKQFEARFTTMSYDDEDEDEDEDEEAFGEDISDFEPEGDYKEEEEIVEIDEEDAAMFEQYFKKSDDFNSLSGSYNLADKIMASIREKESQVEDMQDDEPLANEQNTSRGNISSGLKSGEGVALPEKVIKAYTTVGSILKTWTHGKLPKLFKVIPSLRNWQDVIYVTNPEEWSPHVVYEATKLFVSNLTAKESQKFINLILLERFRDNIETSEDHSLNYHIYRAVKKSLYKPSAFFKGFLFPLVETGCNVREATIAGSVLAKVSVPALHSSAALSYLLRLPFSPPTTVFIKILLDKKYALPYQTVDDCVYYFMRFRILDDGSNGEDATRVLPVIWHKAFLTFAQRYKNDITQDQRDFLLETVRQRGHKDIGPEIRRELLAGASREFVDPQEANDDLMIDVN


Columns and labels:
[1] = biological target: T1, Tsr1-FPZ (S. cerevisiae); assay: cryo-EM structure; single particle analysis of Tsr1-FPZ pre-40S particles (ribonucleoprotein, purified from yeast by the bait Tsr1); consensus 3.1 Å, global classes GC1-GC3, focused classes H1-H3 (head) and P1-P3 (platform)
[2] = biological target: T2, Enp1 (S. cerevisiae (endogenous in BY4742)); assay: as above

Row | binding [1] | binding [2] | Molecule
1 | binds |  | Rio2 (from UniProt P40160 1-425)
2 | binds | binds | Ltv1 (protein, UniProt P34078 1-463) MSKKFSSKNSQRYVVVHRPHDDPSFYDTDASAHVLVPVSNPNKTSPEADLRKKDVSSTKPKGRRAHVGEAALYGINFDDSEYDYTQHLKPIGLDPENSIFIASKGNEQKVEKKNIEDLFIEPKYRRDEIEKDDALPVFQRGMAKPEYLLHQQDTTDEIRGFKPDMNPALREVLEALEDEAYVVNDDVVVEDISKKTQLQGDNYGEEEKEDDIFAQLLGSGEAKDEDEFEDEFDEWDIDNVENFEDENYVKEMAQFDNIENLEDLENIDYQADVRRFQKDNSILEKHNSDDEFSNAGLDSVNPSEEEDVLGELPSIQDKSKTGKKKRKSRQKKGAMSDVSGFSMSSSAIARTETMTVLDDQYDQIINGYENYEEELEEDEEQNYQPFDMSAERSDFESMLDDFLDNYELESGGRKLAKKDKEIERLKEAADEVSKGKLSQRRNRERQEKKKLEKVTNTLSSLKF
3 | binds |  | Rps20 (protein, UniProt P38701 1-121) MSDFQKEKVEEQEQQQQQIIKIRITLTSTKVKQLENVSSNIVKNAEQHNLVKKGPVRLPTKVLKISTRKTPNGEGSKTWETYEMRIHKRYIDLEAPVQIVKRITQITIEPGVDVEVVVASN
4 | binds |  | Enp1 (protein, UniProt P38333 1-483) MARASSTKARKQRHDPLLKDLDAAQGTLKKINKKKLAQNDAANHDAANEEDGYIDSKASRKILQLAKEQQDEIEGEELAESERNKQFEARFTTMSYDDEDEDEDEDEEAFGEDISDFEPEGDYKEEEEIVEIDEEDAAMFEQYFKKSDDFNSLSGSYNLADKIMASIREKESQVEDMQDDEPLANEQNTSRGNISSGLKSGEGVALPEKVIKAYTTVGSILKTWTHGKLPKLFKVIPSLRNWQDVIYVTNPEEWSPHVVYEATKLFVSNLTAKESQKFINLILLERFRDNIETSEDHSLNYHIYRAVKKSLYKPSAFFKGFLFPLVETGCNVREATIAGSVLAKVSVPALHSSAALSYLLRLPFSPPTTVFIKILLDKKYALPYQTVDDCVYYFMRFRILDDGSNGEDATRVLPVIWHKAFLTFAQRYKNDITQDQRDFLLETVRQRGHKDIGPEIRRELLAGASREFVDPQEANDDLMIDVN
5 | binds |  | Rps12 (eS12) (protein, UniProt P48589 1-143) MSDVEEVVEVQEETVVEQTAEVTIEDALKVVLRTALVHDGLARGLRESTKALTRGEALLVVLVSSVTEANIIKLVEGLANDPENKVPLIKVADAKQLGEWAGLGKIDREGNARKVVGASVVVVKNWGAETDELSMIMEHFSQQ
